Measured values taken from US20140037798A1, “LIQUID NUTRITIONAL PRODUCTS COMPRISING METAL AMINO ACID CHELATES” (ABBOTT LABORATORIES, priority 2011, published 2014).
The name of at least one read-out is uncertain.

Assay: Vitamin B12 recovery in retort sterilized chocolate flavored nutritional emulsion (validated HPLC)
Conditions: copper ingredient 35 μM, relative to CuSO4 control

copper lysine chelate
Vitamin B12 recovery v. control: 122%

copper gluconate
Vitamin B12 recovery v. control: 121%
